Laboratory results published in PubChem BioAssay AID1347426 (Functional Genomics Laboratory (NCATS/FGL), 2020).
Hit rate of the full screen: of about 31,000 sequences, about 1,400 (4.5%) were called active.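 How the source made its calls: active means median seed-adjusted z-score above 1 or below -1; inactive means the rest.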 The list shows a part of the results.

Test: Novel Modifiers of Survival Motor Neuron (SMN) Protein: Gene Identification via Genome-wide siRNA Screen;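 further: luminescence tracks full-length SMN protein made from the SMN2 reporter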
Conditions: HEK293T SMN2-luciferase reporter, siRNA knockdown, 72 h; actives lie on both sides
Method in brief: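 Luciferase signal, proportional to full-length SMN made from an SMN2 cDNA reporter in stable HEK293T cells, was read 72 h after siRNA reverse transfection. Values were expressed as MAD scores after non-targeting-control normalization and log10 conversion; seed analysis flagged off-targets.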

Sequence	median seed-adjusted z-score
GAGAUUAUGUCUACGUUUATT against UHRF2	inactive: -0.0941
GGUCGAAUGAUAAGGUGUATT against PTK2	inactive: -0.0806
GAUUGUUGCUUGAUAGUGUTT against CCNC	inactive: -0.606
GAAUAGUACCAAGAACUCATT against PECAM1	inactive: 0.0717
GGGACUACUUGACCGUCAATT against PPP2R2B	inactive: -0.252
GAGUGGAAUUGAGAUCUUATT against ACSL5	inactive: 0.109
CAGUGUGGCUGACAACUUATT against SERTAD1	inactive: 0.376
AUACUUUCCCGCAAAAAGATT against INSL4	inactive: 0.399
GAAGGAUUAUCCCAUCUAATT against CLNS1A	inactive: 0.232
GGACCAUAAUCAAUGUAGATT against ZNF585A	inactive: -0.168
GGGACAUUGGUACAGGUUUTT against CYP11B2	inactive: 0.459
CCUGUGUAUGUUGGACUGATT against PITX1	inactive: 0
GUCUUUGACUUACUGAACATT against PPIL2	inactive: -0.467
CUCUAAGCAUUGAACCAGUTT against RAB3IP	inactive: -0.191
GCAUGAUGGUAUUGAGCUUTT against MS4A6A	inactive: 0.174
GCCUCUAAGUCUCGAGGAATT against TRPM3	inactive: -0.633
CAAAGACUCCACAUACGUUTT against PCM1	inactive: -0.00218
CCAAGUACAUAUCCUGUAATT against BAG4	inactive: 0.111
GAAUACCUACAGAUGUAAATT against ZNF429	inactive: 0.479
GCGCUUUUCUGGGUGAACUTT against PRKDC	inactive: -0.485
AUACAGCUCUAGAUAAGAATT against CAMK1	inactive: 0.325
GAAGGAUUACUAAAUUAGATT against LSM5	inactive: -0.661
GGCGAUGAUAGACUACUAATT against PCCA	inactive: 0
GAAAAUGAGAAAACACGAATT against SLC16A6	inactive: 0.195
CCGAGAAACUGGACCUCAATT against POU4F1	inactive: -0.138
GGCGGAUAAUGAUGGAGAUTT against LOC4951	inactive: 0.0691
CUUCAGUUCGAAUACAUUUTT against RFC5	inactive: -0.644

Quoted from the listing:
Entry for GUCUUUGACUUACUGAACATT against PPIL2 under median seed-adjusted z-score: inactive: -0.467
Entry for CCGAGAAACUGGACCUCAATT against POU4F1 under median seed-adjusted z-score: inactive: -0.138

Remaining list, next part:

Sequence	median seed-adjusted z-score
GGACACUUGGAUAUGAUCATT against AQP3	inactive: -0.0863
GGAUCGUGCUAUCUAAACATT against TTLL5	inactive: 0
AUUUAUUUGUUGAGGUUAUTT against PIM3	active: -1.01
GGAUAACCGUAUUGCCCAATT against AQP7	inactive: 0.0827
CAGAUGAAGCUGUAGCGUATT against HSPA5	inactive: 0.19
GCUCGUAAGUUGGUGAUCATT against TPM3	inactive: 0.111
GGAAGUACAUGAACGCAGUTT against EFTUD1	active: -1.39
CCUGUUUGCUAACAAGUUUTT against GCNT2	inactive: -0.0107
GCAGCUCUUUUAGAUCAAATT against WASL	inactive: 0.143
CCCUGGAGCUGUUCGACAATT against LRRC4	inactive: 0.255
GGUCGAUAAUAGGAAGUUUTT against SPRED2	inactive: -0.749
AGGUGAACGUGGAUGAAGUTT against HBB	inactive: -0.151
GAAGACCUCCAGUCUAUAATT against TRAF1	inactive: 0.518
GUGAAAAGCCUAAAUGACATT against ATP5O	inactive: -0.324
UCUCUGUACUCUCAACCAATT against IL20RB	inactive: -0.413
AGCAAGUAUUGAUUCGUCATT against MYF6	inactive: -0.0315
CCAACAAUUUCAGAGAGUATT against MMP1	inactive: 0.205
GCAGAGGAGUUCACCGAUATT against GUCA1A	inactive: 0.101
UGAUCACGCUGACCACCAUTT against KCNQ2	inactive: 0.0368
AGCUUACCCUUCACACUGATT against SLC2A8	inactive: -0.105
GCAUGAACUACAUCACAAATT against CRTAM	inactive: 0.346
CUUCCAUGCCUUUGACCUATT against CDCP2	inactive: 0.0708
GGAUCAACAGACAACAUCATT against MAP2	inactive: 0.238
GGAUAUACUCAGUUAACAATT against XIAP	inactive: -0.0329
GUAAGGAUCCUAAACGAGATT against ZCCHC13	inactive: -0.297
GGAUUCCUGUUGAGGAGAUTT against PDE6G	inactive: 0.0109
GGCUAUAAUGCACGACUUATT against DNAH11	inactive: 0.104
